Values quoted from earlier work in patent publication US7887852B2, “Soft gel capsules containing polymethoxylated flavones and palm oil tocotrienols” (Soft Gel Technologies, Inc., priority 2005, dated 2011).
At least one structure is not confirmed: it was looked up by name or label, or the drawing left a doubt.

Details: cited from earlier work

O=C(O[C@@H]1Cc2c(O)cc(O)cc2O[C@@H]1c1cc(O)c(O)c(O)c1)c1cc(O)c(O)c(O)c1 [EGCG, epigallocatechin gallate]
Antioxidant activity, times more potent than vitamins C and E: 25-100 times
